At least one compound was matched to its structure with a doubt left.
Tested on: primary hepatocytes
Test: Insulin signaling in primary hepatocytes (immunoblot)
Format: cell-based, mouse
Procedure: Snap-frozen liver and harvested cells were lysed in buffer containing 50 mM Tris-HCl (pH 7.4), 150 mM NaCl, 1 mM EDTA, 1 mM Na3VO4, 20 mM NaF, 10 mM glycerophosphate, 1 mM PMSF, 10% glycerol, 1% Triton X-100 and protease inhibitor cocktail. For immunoprecipitation, the cell lysates were obtained in 0.3% CHAPS-containing lysis buffer, sonicated and centrifuged at 20,000 g for 15 min at 4° C., and the supernatant was incubated with 20 μl of anti-FLAG beads (Sigma) at 4° C. for 4 h under gentle agitation.
Primary hepatocytes were isolated from C57BL/6J mice by digesting liver with perfusion of collagenase type IV as described previously. After perfusion, 16×10^5 cells were plated on collagen-coated 60 mm dishes in Dulbecco's modified Eagle's medium (DMEM)/F12 supplemented with fetal bovine serum (FBS), penicillin/streptomycin and 100 nM dexamethasone. After 4 h, the medium was changed to DMEM/F12 containing penicillin/streptomycin.

[1] = rapamycin 20 nM, Torin 1 50 nM, ImP 100 μM

With Oc1c2ccccc2c2c3c(cccc13)N=N2 [SP600125, reference compound] the “restoration of imidazole propionate-induced IRS1 reduction” value (inhibitor 20 μM, ImP 100 μM, 24 h) was “did not restore”.
For CO[C@H]1C[C@@H]2CC[C@@H](C)[C@@](O)(O2)C(=O)C(=O)N2CCCC[C@H]2C(=O)O[C@H]([C@H](C)C[C@@H]2CC[C@@H](O)[C@H](OC)C2)CC(=O)[C@H](C)/C=C(\C)[C@@H](O)[C@@H](OC)C(=O)[C@H](C)C[C@H](C)/C=C/C=C/C=C/1C [rapamycin, (7E,15E,17E,19E)-9,10,12,13,14,21,22,23,24,25,26,27,32,33,34aS-Hexadecahydro-9R,27-dihydroxy-3S-[(1R)-2-[(1S,3R,4R)-4-hydroxy-3-methoxycyclohexyl]-1-methylethyl]-10R,21S-dimethoxy-6R,8,12R,14S,20,26R-hexamethyl-23S,27R-epoxy-3H-pyrido[2,1-c][1,4]oxaazacyclohentriacontine-1,5,11,28,29(4H,6H,31H)-pentone, reference compound], the “effect on imidazole propionate-induced p62 phosphorylation” value (rapamycin 20 nM) was “not affected”, the “effect on imidazole propionate-induced S6K1 phosphorylation” value [1] was “reversed” and the “inhibition of imidazole propionate-induced reduction of IRS” value [1] was “inhibited”.

Reference: patent US20190369122A1, “METABOLIC DISORDERS” (priority 2016, published 2019)
